Laboratory results as given in paper PMC4302594.

Key:
[1] = biological target: GST-fused Chlamydia trachomatis D/UW-3/CX chlamydial outer protein N (GST-CtCopN) (Chlamydia trachomatis D/UW-3/CX); assay: affinity purification with mass spectrometry; GST-fusion proteins on glutathione-agarose beads mixed with soluble fraction of HEp-2 cells, 4-12 h at 4°C, 40 mM Tris-HCl pH 7.5, 150 mM NaCl, 0.5% Triton-X-100; eluate on SDS-PAGE with Coomassie staining, specific band cut out for nano-LC-MS/MS; only the target purified
[2] = biological target: GST-fused Chlamydia pneumoniae TW183 chlamydial outer protein N (GST-CpCopN) (Chlamydia pneumoniae TW183); assay: as above

B1: fructose bisphosphate aldolase A (enzyme, UniProt P04075 1-364)
chain: MPYQYPALTPEQKKELSDIAHRIVAPGKGILAADESTGSIAKRLQSIGTENTEENRRFYRQLLLTADDRVNPCIGGVILFHETLYQKADDGRPFPQVIKSKGGVVGIKVDKGVVPLAGTNGETTTQGLDGLSERCAQYKKDGADFAKWRCVLKIGEHTPSALAIMENANVLARYASICQQNGIVPIVEPEILPDGDHDLKRCQYVTEKVLAAVYKALSDHHIYLEGTLLKPNMVTPGHACTQKFSHEEIAMATVTALRRTVPPAVTGITFLSGGQSEEEASINLNAINKCPLLKPWALTFSYGRALQASALKAWGGKKENLKAAQEEYVKRALANSLACQGKYTPSGQAGAAASESLFVSNHAY
With B1 the binding [1] was “no binding” and the binding [2] was “binds”.

No constants are given. Whether binding was seen depends on the method and setting. Binding seen in cells or lysates may run through a third protein. These calls come from enrichment with a bait or labelling near it, and not all partners need be listed. For some assays here: No binding means not detected with the bait.
